PubChem BioAssay AID1259405 | NCATS – 2018
Test: 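Knock-downs that lift recombinant protein yield in hamster ovary cells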 (primary screen). Cell system: Chinese hamster CHO-K1 ovary cells with stable secreted eGFP expression. Knock-down reagent: single siRNA against mouse genes, 0.8 pmol siRNA per well (2 µl of 400 nM stock). Duration: 3 days. Measured: 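Per-well intracellular GFP measured by laser scanning cytometry, plus viability from ATP luminescence, each relative to plate median of non-targeting control wells, in %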. Scale: GFP, % of control: higher = more GFP per well, higher productivity; viability (ATP), % of control: higher = more viable cells (more ATP). Active means: 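a knock-down is called active if GFP reaches 120% or more of non-targeting control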.
In all, the deposit lists about 50,000 reagents; this is an unselected part. About 4,000 of all reagents (8%) were called active. 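Mouse siRNA library applied to hamster cells; one well for each siRNA.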 Entries without a mark were called inactive. The numbers tell different reagents against one gene apart.

gene knocked down,reagent,"GFP, % of control","viability (ATP), % of control"
Dcaf17 (GeneID 75763),1,31.2,51.1
Dcaf17 (GeneID 75763),2,77.8,56.4
Dcaf17 (GeneID 75763),3,74.4,82.3
Ncor1 (GeneID 20185),1,69.1,75
Ncor1 (GeneID 20185),2,88.8,74.6
Umps (GeneID 22247),1,65.8,53.1
Umps (GeneID 22247),2,121 (active),120
Umps (GeneID 22247),3,76,80.9
Man1c1 (GeneID 230815),1,139 (active),104
Man1c1 (GeneID 230815),2,58.3,62
Man1c1 (GeneID 230815),3,61.4,91.7
Tnfsf10 (GeneID 22035),1,75.7,94.9
Tnfsf10 (GeneID 22035),2,91.7,80.6
Has1 (GeneID 15116),1,92.6,117
Has1 (GeneID 15116),2,89.1,112
Has1 (GeneID 15116),3,89.5,120
Pank4 (GeneID 269614),1,104,95.1
Or11l3 (GeneID 258373),1,42.4,52.3
Or11l3 (GeneID 258373),2,87.3,74.7
Or11l3 (GeneID 258373),3,88.8,75.5
Zmiz1 (GeneID 328365),1,35.4,34.4
Zmiz1 (GeneID 328365),2,83.5,72
Zmiz1 (GeneID 328365),3,101,143
Pcdha5 (GeneID 12941),1,118,93.8
Pcdha5 (GeneID 12941),2,68.7,59.2
Pcdha5 (GeneID 12941),3,83.6,78.3
Slc43a2 (GeneID 215113),1,128 (active),76.1
Slc43a2 (GeneID 215113),2,107,81.8
Klrb1f (GeneID 232408),1,66.2,54.4
Klrb1f (GeneID 232408),2,77.6,80.1
Klrb1f (GeneID 232408),3,6.66,17.3

Next part; the last 10 above are carried over.
gene knocked down,reagent,"GFP, % of control","viability (ATP), % of control"
Zmiz1 (GeneID 328365),2,83.5,72
Zmiz1 (GeneID 328365),3,101,143
Pcdha5 (GeneID 12941),1,118,93.8
Pcdha5 (GeneID 12941),2,68.7,59.2
Pcdha5 (GeneID 12941),3,83.6,78.3
Slc43a2 (GeneID 215113),1,128 (active),76.1
Slc43a2 (GeneID 215113),2,107,81.8
Klrb1f (GeneID 232408),1,66.2,54.4
Klrb1f (GeneID 232408),2,77.6,80.1
Klrb1f (GeneID 232408),3,6.66,17.3
Galnt1 (GeneID 14423),1,121 (active),81
Galnt1 (GeneID 14423),2,83.7,138
Galnt1 (GeneID 14423),3,108,93.9
Or2t26 (GeneID 258877),1,59.2,70.9
Or2t26 (GeneID 258877),2,106,76.3
Or2t26 (GeneID 258877),3,66.1,93.8
Fermt1 (GeneID 241639),1,108,66.4
Fermt1 (GeneID 241639),2,102,94.8
Fermt1 (GeneID 241639),3,127 (active),139
Tmem127 (GeneID 69470),1,95.5,87.8
Tmem127 (GeneID 69470),2,95.7,71.6
Tmem127 (GeneID 69470),3,111,84.5
Or10ab4 (GeneID 257891),1,210 (active),80.4
Or10ab4 (GeneID 257891),2,46.2,54.4
Or10ab4 (GeneID 257891),3,80.8,101
Or5ak20 (GeneID 258166),1,58.1,28.1
Or5ak20 (GeneID 258166),2,72.3,89.4
Or5ak20 (GeneID 258166),3,44.8,71
Or11i1 (GeneID 258482),1,35.2,19
Or11i1 (GeneID 258482),2,66.5,50.1
Or11i1 (GeneID 258482),3,71.5,49.1
Pld1 (GeneID 18805),1,97.8,85.1
Pld1 (GeneID 18805),2,103,81.1
Pld1 (GeneID 18805),3,89.2,103
Hand2 (GeneID 15111),1,86.8,59.3
Hand2 (GeneID 15111),2,100,93.7
Bcl2l11 (GeneID 12125),1,47.7,34.3
Bcl2l11 (GeneID 12125),2,80.9,104
Bcl2l11 (GeneID 12125),3,101,111
Trim37 (GeneID 68729),1,73.9,80.3
Trim37 (GeneID 68729),2,42,46.7
Trim37 (GeneID 68729),3,57.9,68.4
Csta2 (GeneID 76770),1,53,40.3
Csta2 (GeneID 76770),2,90.5,77.2
Csta2 (GeneID 76770),3,87.3,87.4
Bdkrb2 (GeneID 12062),1,143 (active),101
Bdkrb2 (GeneID 12062),2,110,78.9
Bdkrb2 (GeneID 12062),3,82.7,58.5
Gm9903 (GeneID 433873),1,64.9,60.6
Gm9903 (GeneID 433873),2,83.1,65.5
Gm9903 (GeneID 433873),3,66.2,79.8
Pknox2 (GeneID 208076),1,46.8,68.9
Pknox2 (GeneID 208076),2,62.5,74.5
Pknox2 (GeneID 208076),3,115,93.5
Scgb1a1 (GeneID 22287),1,45.3,59.6
Scgb1a1 (GeneID 22287),2,63.9,87
Scgb1a1 (GeneID 22287),3,39.2,30
Ehbp1 (GeneID 216565),1,78.3,78.9
Ehbp1 (GeneID 216565),2,60.2,53.8
Ehbp1 (GeneID 216565),3,75.2,80.3
Or4f52 (GeneID 257980),1,55.9,54.4
Or4f52 (GeneID 257980),2,77.4,66.1
Or4f52 (GeneID 257980),3,63.3,93.6
